Article PMC4823954, “From fighting depression to conquering tumors: a novel tricyclic thiazepine compound as a tubulin polymerization inhibitor” (Cell Death & Disease, 2016)

Test system: H460TaxR cells
Experiment: Genome-wide transcriptional profiling microarray
Assay type: cell-based, human
Conditions: 2 μM, 4 h

Q: With `Cc1ccc(C2=Nc3cccnc3S(=O)(=O)c3ccccc32)cc1` [TBPT, 6-(p-tolyl)benzo[f] pyrido[2,3-b][1,4] thiazepine 11,11-dioxide] as the molecule, how does the “number of genes suppressed (≥2-fold)” value read?
A: 534 genes

Q: And the “number of genes upregulated (≥2-fold)” value?
A: 410 genes
